Data from patent publication EP0121013A1, “Oral compositions” (UNILEVER PLC, priority 1983, dated 1984).
At least one structure is not confirmed: it was looked up by name or label, or the drawing left a doubt.

System: Streptococcus mutans 6715
Test: Inhibition of bacterial growth (optical density after 24 hours)
Type: cell-based
Settings: S.mutans 6715; 24 hours at 37°C; means of triplicate experiments
Text: Cariogenic Bacteria used for testing the effect of Sn(^NH4)2F6 were Streptococcus mutans (strains coded 6715 and OMZ-176), Streptococcus sanguis (strains coded 10556 and 10557), Streptococcus salivarius (strains coded SS4 and H257), and Lactobacillus casei. All of the above organisms were maintained as lyophilised cultures until the time for use.
It is generally agreed that oral bacteria are responsible for tooth decay. Therefore, a reduction of the cariogenic flora usually results in a decrease in caries formation. The inhibitory action of the test compounds was. determined by adding each salt, at known concentrations, to a culture of cariogenic bacteria. After 24 hours at 37°C bacterial growth was monitored as a change in optical density. […]
The medium used for bacterial growth experiments was Trypticase Soy Broth (B.B.L.: Baltimore Biological Labs., Baltimore, MD) supplemented with 0.1% Tween 80 (the word Tween is a trade mark) and 0.05% sodium thioglycollate. […] The test media (10ml) consisting of growth medium plus the potential inhibitors, contained in 16 x 120 mm screw top test tubes, were inoculated with the second stage seed cultures to given an absorbancy reading of 0.05. […]
Absorbance at 600 nm versus a medium control was used as a measure of growth on a Beckman Model B spectrophotometer. All absorbancy readings were determined in 16 mm x 120 mm Kimax test tubes. […]

Row | SMILES | ID/50 [mM/L]
1 | N.N.[F-].[F-].[F-].[F-].[F-].[F-].[Sn] [Sn(NH4)2F6, stannic ammonium fluoride] | 1.20
2 | [F][Sn][F] [SnF2] | 1.50
